According to article doi:10.1101/529222:
Results are given in words; binding and its absence hold for the method and conditions named. In cells and extracts the contact can be indirect. A result given as binding can be weak or reduced; the word gives no strength. Sequences can lack the tags named with a protein.

Molecular target: T1, Myc-TRIM67 (mouse) (UniProt Q505D9)
T1 sequence: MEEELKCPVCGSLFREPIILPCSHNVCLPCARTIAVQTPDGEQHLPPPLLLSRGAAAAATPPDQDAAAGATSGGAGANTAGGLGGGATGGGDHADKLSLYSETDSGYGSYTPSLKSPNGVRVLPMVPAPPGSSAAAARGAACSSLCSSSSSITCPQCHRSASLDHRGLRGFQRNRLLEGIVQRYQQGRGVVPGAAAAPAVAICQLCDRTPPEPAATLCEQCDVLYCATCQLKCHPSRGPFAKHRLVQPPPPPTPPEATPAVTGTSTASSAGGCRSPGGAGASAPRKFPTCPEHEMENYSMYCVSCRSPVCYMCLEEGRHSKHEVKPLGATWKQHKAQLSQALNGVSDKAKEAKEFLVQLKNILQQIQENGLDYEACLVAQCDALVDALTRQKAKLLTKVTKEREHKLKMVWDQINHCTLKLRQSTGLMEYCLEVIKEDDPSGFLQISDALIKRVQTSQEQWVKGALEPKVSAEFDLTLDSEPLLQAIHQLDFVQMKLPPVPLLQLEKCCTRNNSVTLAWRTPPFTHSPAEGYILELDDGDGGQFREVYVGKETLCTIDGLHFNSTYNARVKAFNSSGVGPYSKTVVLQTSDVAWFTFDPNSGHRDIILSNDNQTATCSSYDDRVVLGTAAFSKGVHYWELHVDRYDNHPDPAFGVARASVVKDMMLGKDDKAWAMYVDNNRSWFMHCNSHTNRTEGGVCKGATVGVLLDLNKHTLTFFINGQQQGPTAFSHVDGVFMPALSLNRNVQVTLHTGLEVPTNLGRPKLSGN
Experiment: co-IP

binding: binds
Substance: GFP-Mena (from UniProt Q03173-3)
